PubChem BioAssay AID1224830 | NIAID – 2016
The deposit covers about 18,000 reagents; below is an unselected part. About 2,900 of all reagents (16%) were called active. 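Calls are made per well; low scores hint the gene aids the LPS response, high scores that it dampens it.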 Unmarked entries are inactive. Repeated entries: four replicate wells of each siRNA pool. Reagent sequences are not shown.

- Purpose: 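Host factors that control LPS-induced TNF expression in human macrophages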 (primary screen)
- System: human THP-1 monocytic leukaemia cells, TNF dual-luciferase reporter clone, PMA-differentiated to macrophage-like cells
- Knock-down reagent: siRNA pool against human genes, 50 nM
- Duration: LPS for 4 h, given about 3 days after siRNA transfection
- Treatment: bacterial LPS (TLR4 ligand), 10 ng/ml
- Measured: 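TNF firefly reporter luminescence divided by renilla, normalised to the plate median, then turned into a robust z-score for each replicate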
- Reading the numbers: TNF reporter robust z-score: higher = stronger TNF reporter response to LPS
- Active means: 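a well is active when its z-score exceeds 2.8 or falls below -1.5; control wells carry no call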

Gene,TNF reporter robust z-score
NKG7,0.44
NKG7,-0.33
NKG7,-0.16
NKG7,-0.95
GTF3A,-0.68
GTF3A,0.66
GTF3A,0.22
GTF3A,1.07
XXYLT1,-1
XXYLT1,-0.5
XXYLT1,0.05
XXYLT1,1.67
CTSF,-0.22
CTSF,-0.85
CTSF,-0.02
CTSF,-0.79
ZNF677,-0.94
ZNF677,-0.79
ZNF677,-1.25
ZNF677,-1.14
DPF3,-0.14
DPF3,-0.58
DPF3,-0.96
DPF3,-1.31
AMN,0.37
AMN,0.27
AMN,-1.13
AMN,-0.78
BCO2,-0.21
BCO2,0.54
BCO2,0.71
BCO2,0.57
RAC3,0.49
RAC3,0.31
RAC3,1.46
RAC3,1.38
ZFP30,0.18
ZFP30,0.43
ZFP30,0.56
ZFP30,-0.02
CNTNAP5,-1.46
CNTNAP5,-1.21
CNTNAP5,-1.7 (active)
CNTNAP5,-1.87 (active)
KATNA1,0.67
KATNA1,-0.57
KATNA1,-0.98
KATNA1,1.84
HDGFL3,0.16
HDGFL3,0.05
HDGFL3,1.59
HDGFL3,0.6
NRP2,-1.11
NRP2,-0.9
NRP2,-1.03
NRP2,-0.47
OSM,0.88
OSM,0.35
OSM,0.73
OSM,0.02
OR6C1,-1.11
OR6C1,-1.02
OR6C1,-0.71
OR6C1,-0.16
TBX19,2.04
TBX19,-0.48
TBX19,-0.91
TBX19,2
PLEKHA6,-0.09
PLEKHA6,1.32
PLEKHA6,-0.04
PLEKHA6,1.81
RPS27L,-0.15
RPS27L,-0.31
RPS27L,0
RPS27L,-0.03
